Taken from: PubChem BioAssay AID686937 (Drosophila RNAi Screening Center, 2013)

Purpose: 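Knock-downs that reduce output of a secreted reporter enzyme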 (primary screen)
Cell system: Drosophila S2 cells expressing secreted horseradish peroxidase
Reagent: long dsRNA against Drosophila genes
Time to read-out: about 5.5 days (5 days dsRNA, then 12 h reporter induction)
Treatment: reporter expression induced after 5 days of dsRNA, read 12 h later; inducer not stated
Read-out: 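After 5 days of dsRNA and 12 h of reporter induction, medium peroxidase read by chemiluminescence and scored as per-plate z-score; higher values mean more reporter released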
Reading the numbers: z-score: higher = more reporter secreted into medium
The screen tested about 23,000 reagents; below is a random part of those that have a named target and a result. 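Reduced-secretion tags in replicate 1 do not always agree with the z-scores; no criterion for assigning the tags was given.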 A plus sign joins genes that one reagent is predicted to hit. The record does not give: the amount of reagent.

gene,amplicon,"z-score, replicate 1","z-score, replicate 2","z-score, replicate 3","z-score, replicate 4","phenotype, replicate 1"
CG31109,DRSC14648,0.36,0.18,,,
CG7029,DRSC16177,-1,-1.15,,,
PNUTS,DRSC00638,-0.61,-0.3,,,
PNUTS,DRSC22136,-0.83,-0.08,,,
CG15715,DRSC10216,0.08,0.13,,,
Nup35,DRSC19999,0.1,0.13,,,
CG10336,DRSC02037,0.42,0.28,,,
LysS,DRSC08677,0.42,0.4,,,
AIMP1,DRSC07118,0.23,0.25,,,
RYBP,DRSC04117,0.26,0.56,,,
CG10035,DRSC14177,0.25,0.52,,,
kel,DRSC03554,0.26,0.17,,,
Brd7-9,DRSC03017,-0.13,0.19,,,
CG9380,DRSC04549,0.52,0.16,,,
CG30156,DRSC04959,-0.21,,,,
CG31683 + CG18858,DRSC02703,0.02,0.32,,,
CG9953,DRSC11106,0.33,0.08,,,
CG13045,DRSC09926,0.58,0.5,,,
galla-1,DRSC05987,0.45,0.49,,,
Tmem63,DRSC06063,0.4,0.31,,,
CG3061,DRSC15460,0.27,0.54,,,
nclb,DRSC07009,0.44,0.43,,,
Cpr64Ac,DRSC08462,0.23,0.18,,,
Bace,DRSC02197,0.86,0.13,,,
pHCl-1,DRSC09401,0.12,-0.21,,,
pHCl-1,DRSC09888,0.22,0.23,,,
pHCl-1,DRSC09991,0.46,0.42,,,
pHCl-1,DRSC10589,0.47,0.47,,,
Vamp7,DRSC06599,0.01,0.33,,,
Cp16,DRSC11119,0.24,0.13,,,
CG9609,DRSC20199,0.24,0.25,,,
CG17549,DRSC02625,0.45,0.32,,,
TpnC4,DRSC04856,-0.11,0.26,,,
CG8746,DRSC07257,0.47,0.49,,,
CG18563,DRSC02676,0.6,0.45,,,
Treh,DRSC04548,0.33,0.23,,,
Atg7,DRSC05741,0.44,0.36,,,
Atg7,DRSC06937,0.26,0.18,,,
CG33521,DRSC17179,0.69,0.37,,,
CG33521,DRSC17211,0.42,0.38,,,
CG33521,DRSC22919,-0.73,-0.24,,,
CG10140,DRSC09704,0.35,0.26,,,
CG17996 + Tsen2,DRSC02650,0.28,0.17,,,
Ide,DRSC11867,0.27,0.18,,,
Cluap1,DRSC20637,0.45,0.14,-0.87,-0.26,
CG8774,DRSC16445,0.27,0.26,,,
CG15475,DRSC02486,0.38,0.37,,,
natalisin,DRSC14966,-1.59,-2.52,,,reduced secretion
natalisin,DRSC14967,0.67,0.8,,,
Obp73a,DRSC09907,0.11,0.31,,,
CG9691,DRSC18441,0.41,0.52,,,
Ptp10D,DRSC20272,0.26,0.27,,,
Obp8a,DRSC17868,0.45,0.12,,,
CG6454,DRSC16044,0.34,0.23,,,
Cpr49Ah,DRSC07204,-0.01,-0.03,,,
CG9674,DRSC11088,0.36,0.37,,,
CG9674,DRSC11089,0.09,0.13,,,

Just “z-score, replicate 2” (7 entries from above):
CG8774 [DRSC16445] = 0.26
CG15475 [DRSC02486] = 0.37
natalisin [DRSC14966] = -2.52
natalisin [DRSC14967] = 0.8
Obp73a [DRSC09907] = 0.31
CG9691 [DRSC18441] = 0.52
Ptp10D [DRSC20272] = 0.27
